{"source": "PubChem BioAssay AID1259254 – NCATS – 2017", "purpose": "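Genome-wide screen for genes that prevent DNA re-replication in cancer cells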 (primary screen)", "cells": "human HCT116 colorectal cancer cells", "knock-down reagent": "single siRNA against human genes", "timing": "3 days", "detection": "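Imaged Hoechst DNA stain sorts each cell into a cycle phase by DNA amount; per plate, G2 fraction set to 0% for non-targeting and 100% for GMNN siRNA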", "direction": "G2 robust z-score: higher = more G2 cells, more excess DNA replication", "hit rule": "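Active siRNAs have a G2 robust z of 5 or more median absolute deviations over the median, which in these data means about 38% or higher of GMNN control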", "note": "This is an unselected part of about 59,000 reagents. About 1,550 of them (2.6%) were called active. 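G2 share is only a proxy for re-replication; each gene was hit by three separate siRNAs, and active genes were retested.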 The numbers tell different reagents against one gene apart. Not all columns of the deposit are shown. No sequences are given here. Not given: the amount of reagent."}
{"gene symbol": "GLT1D1 (glycosyltransferase 1 domain containing 1)", "reagent": 1, "G2 robust z-score": -0.744, "Outcome": "inactive"}
{"gene symbol": "GLT1D1 (glycosyltransferase 1 domain containing 1)", "reagent": 2, "G2 robust z-score": -0.0489, "Outcome": "inactive"}
{"gene symbol": "GLT1D1 (glycosyltransferase 1 domain containing 1)", "reagent": 3, "G2 robust z-score": -0.919, "Outcome": "inactive"}
{"gene symbol": "CDC37P1 (cell division cycle 37 pseudogene 1)", "reagent": 1, "G2 robust z-score": 0.342, "Outcome": "inactive"}
{"gene symbol": "CDC37P1 (cell division cycle 37 pseudogene 1)", "reagent": 2, "G2 robust z-score": 0.973, "Outcome": "inactive"}
{"gene symbol": "CDC37P1 (cell division cycle 37 pseudogene 1)", "reagent": 3, "G2 robust z-score": 0.527, "Outcome": "inactive"}
{"gene symbol": "CLRN1 (clarin 1)", "reagent": 1, "G2 robust z-score": 0.791, "Outcome": "inactive"}
{"gene symbol": "CLRN1 (clarin 1)", "reagent": 2, "G2 robust z-score": 0.0617, "Outcome": "inactive"}
{"gene symbol": "CLRN1 (clarin 1)", "reagent": 3, "G2 robust z-score": 0.0896, "Outcome": "inactive"}
{"gene symbol": "AKT3 (AKT serine/threonine kinase 3)", "reagent": 1, "G2 robust z-score": -1.55, "Outcome": "inactive"}
{"gene symbol": "AKT3 (AKT serine/threonine kinase 3)", "reagent": 2, "G2 robust z-score": -0.346, "Outcome": "inactive"}
{"gene symbol": "AKT3 (AKT serine/threonine kinase 3)", "reagent": 3, "G2 robust z-score": 1.79, "Outcome": "inactive"}

4 neighbouring entries already listed:
{"gene symbol": "CDC37P1 (cell division cycle 37 pseudogene 1)", "reagent": 2, "G2 robust z-score": 0.973, "Outcome": "inactive"}
{"gene symbol": "CDC37P1 (cell division cycle 37 pseudogene 1)", "reagent": 3, "G2 robust z-score": 0.527, "Outcome": "inactive"}
{"gene symbol": "CLRN1 (clarin 1)", "reagent": 1, "G2 robust z-score": 0.791, "Outcome": "inactive"}
{"gene symbol": "CLRN1 (clarin 1)", "reagent": 2, "G2 robust z-score": 0.0617, "Outcome": "inactive"}

More records follow.
{"gene symbol": "WFDC3 (WAP four-disulfide core domain 3)", "reagent": 1, "G2 robust z-score": -0.256, "Outcome": "inactive"}
{"gene symbol": "WFDC3 (WAP four-disulfide core domain 3)", "reagent": 2, "G2 robust z-score": 1.29, "Outcome": "inactive"}
{"gene symbol": "WFDC3 (WAP four-disulfide core domain 3)", "reagent": 3, "G2 robust z-score": -1.54, "Outcome": "inactive"}
{"gene symbol": "SEPHS1 (selenophosphate synthetase 1)", "reagent": 1, "G2 robust z-score": -0.243, "Outcome": "inactive"}
{"gene symbol": "SEPHS1 (selenophosphate synthetase 1)", "reagent": 2, "G2 robust z-score": 0.414, "Outcome": "inactive"}
{"gene symbol": "SEPHS1 (selenophosphate synthetase 1)", "reagent": 3, "G2 robust z-score": -0.886, "Outcome": "inactive"}
{"gene symbol": "VSTM1 (V-set and transmembrane domain containing 1)", "reagent": 1, "G2 robust z-score": -0.598, "Outcome": "inactive"}
{"gene symbol": "VSTM1 (V-set and transmembrane domain containing 1)", "reagent": 2, "G2 robust z-score": -0.487, "Outcome": "inactive"}
{"gene symbol": "VSTM1 (V-set and transmembrane domain containing 1)", "reagent": 3, "G2 robust z-score": 3.54, "Outcome": "inactive"}
{"gene symbol": "AIDA (axin interactor, dorsalization associated)", "reagent": 1, "G2 robust z-score": 0.0923, "Outcome": "inactive"}
{"gene symbol": "AIDA (axin interactor, dorsalization associated)", "reagent": 2, "G2 robust z-score": -0.837, "Outcome": "inactive"}
{"gene symbol": "AIDA (axin interactor, dorsalization associated)", "reagent": 3, "G2 robust z-score": -0.825, "Outcome": "inactive"}
